For the experiment, the target named is GDF7 (UniProt Q7Z4P5). Kind of experiment: phage display selection on immobilized GDF-7, phage ELISA; phage-displayed peptide.

The chains behind the UniProt entries cited, without tags or fusion partners. Residues count along the entry.
UniProt Q7Z4P5, residues 322-450: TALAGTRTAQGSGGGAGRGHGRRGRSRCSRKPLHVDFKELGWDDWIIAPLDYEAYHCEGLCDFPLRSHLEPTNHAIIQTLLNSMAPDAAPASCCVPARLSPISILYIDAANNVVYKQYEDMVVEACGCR

No constants are given. Whether binding was seen depends on the method and setting. Some results given as binding are weak or reduced against the parent protein; the word gives no strength.

SSWEETGWRDFNSLRGREVSR [SEQ ID NO 4]: the binding result is recorded as “binds”.

In the case of SREAHVGWGVFEALQGVTVSR [SEQ ID NO 5], the binding entry was “binds”. The result for SSPSWDQFQSLVGVPTWAASR [SEQ ID NO 7] reads “binds”.

Consider SSVGWDEFMSLRGVEKKGWSR [SEQ ID NO 6], for which the binding result is reported as “binds”. The value for SSGLLGGWSGLQGVELWSSSR [SEQ ID NO 8] was “binds”.

Values taken from patent US20090098175A1 (AFFINERGY, published 2009).
